Results deposited as PubChem BioAssay AID504784 (Drosophila RNAi Screening Center, 2011).
The screen tested about 17,000 reagents; shown is an unselected part of those with a known target gene and a result. 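Each column is one replicate's B-score; the combined score over replicates was not deposited, so single values may mislead.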 The numbers tell different reagents against one gene apart. Not all columns of the deposit are shown.

- Screen: 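Fly genes whose silencing alters how much lipid cells keep in droplets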 (primary screen)
- Cells: Drosophila Kc167 embryonic cells
- Reagents: long dsRNA against Drosophila genes, about 250 ng dsRNA per well
- Time to read-out: 4 days
- Challenge: cells fed 400 µM oleic acid bound to BSA
- Measured: 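Cells imaged and segmented; ratio of lipid droplet area to nuclear area, log-transformed, then normalised as a B-score over the screen; higher means more stored lipid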
- Direction: droplet/nuclear area B-score: higher = more stored lipid (overstorage)

With CG10903, what was measured?
droplet/nuclear area B-score, replicate 1: -0.554

What is on record for CG18662?
droplet/nuclear area B-score, replicate 1: 0.139

With CG7824, what was measured?
droplet/nuclear area B-score, replicate 1: 0.303

For GCC185, how do the results read?
droplet/nuclear area B-score, replicate 1: -1.43

How did the screen score 14-3-3epsilon?
droplet/nuclear area B-score, replicate 1: 1.14

With Nufip, what does the deposit list?
droplet/nuclear area B-score, replicate 1: 0.776

How did the screen score CG42534 #1?
droplet/nuclear area B-score, replicate 1: 1.17

Which result is listed for CG42534 #2?
droplet/nuclear area B-score, replicate 1: 1.63

For CG42534 #3, what was measured?
droplet/nuclear area B-score, replicate 1: 1.11

What is on record for CG42534 #4?
droplet/nuclear area B-score, replicate 1: -0.231

For CG42534 #5, what does the deposit list?
droplet/nuclear area B-score, replicate 1: 0.432

For CG18367, what does the deposit list?
droplet/nuclear area B-score, replicate 1: 1.25

For mbl #1, what was measured?
droplet/nuclear area B-score, replicate 1: 2.23

Which result is listed for mbl #2?
droplet/nuclear area B-score, replicate 1: -2.72

What did the screen give for mbl #3?
droplet/nuclear area B-score, replicate 1: 0.627

With mbl #4, what does the deposit list?
droplet/nuclear area B-score, replicate 1: 0.787

For CG5399, what was measured?
droplet/nuclear area B-score, replicate 1: 1.01

For car, what was measured?
droplet/nuclear area B-score, replicate 1: 0.443

What did the screen give for CG13784 #1?
droplet/nuclear area B-score, replicate 1: 0.626

Which result is listed for CG13784 #2?
droplet/nuclear area B-score, replicate 1: -2.42

With CG7341, what was measured?
droplet/nuclear area B-score, replicate 1: -0.439

For CG8128, what was measured?
droplet/nuclear area B-score, replicate 1: -0.01

What did the screen give for CG33460?
droplet/nuclear area B-score, replicate 1: -0.579

What did the screen give for Sdr?
droplet/nuclear area B-score, replicate 1: -0.15

Which result is listed for CG3679?
droplet/nuclear area B-score, replicate 1: -0.866

5 entries from above, ordered by “droplet/nuclear area B-score, replicate 1”, highest first.
14-3-3epsilon | droplet/nuclear area B-score, replicate 1: 1.14
CG7824 | droplet/nuclear area B-score, replicate 1: 0.303
CG18662 | droplet/nuclear area B-score, replicate 1: 0.139
CG10903 | droplet/nuclear area B-score, replicate 1: -0.554
GCC185 | droplet/nuclear area B-score, replicate 1: -1.43

The listing continues:
With raskol #1, how do the results read?
droplet/nuclear area B-score, replicate 1: 0.026

How did the screen score raskol #2?
droplet/nuclear area B-score, replicate 1: 1.27

What did the screen give for raskol #3?
droplet/nuclear area B-score, replicate 1: 0.0655

For raskol #4, how do the results read?
droplet/nuclear area B-score, replicate 1: -3.16

For raskol #5, what was measured?
droplet/nuclear area B-score, replicate 1: -0.196

How did the screen score Smvt?
droplet/nuclear area B-score, replicate 1: -1.76

With CG6928, what does the deposit list?
droplet/nuclear area B-score, replicate 1: -2.76

For CG32369 #1, what does the deposit list?
droplet/nuclear area B-score, replicate 1: -1.83

Which result is listed for CG32369 #2?
droplet/nuclear area B-score, replicate 1: -1.76

Which result is listed for CG30427 #1?
droplet/nuclear area B-score, replicate 1: -0.17

With CG30427 #2, what was measured?
droplet/nuclear area B-score, replicate 1: -0.000754

What is on record for CG30427 #3?
droplet/nuclear area B-score, replicate 1: 0.219

What is on record for CG13313?
droplet/nuclear area B-score, replicate 1: 1.24

For CG9962, what does the deposit list?
droplet/nuclear area B-score, replicate 1: 0.558

With Cwc25, what does the deposit list?
droplet/nuclear area B-score, replicate 1: 0.127
